Test results from paper PMC4468146.
No constants are given. Whether binding was seen depends on the method and setting. Binding seen in cells or lysates may run through a third protein. These calls come from enrichment with a bait or labelling near it, and not all partners need be listed.

The chains behind the UniProt entries cited, without tags or fusion partners. Residues count along the entry.
UniProt P47871, residues 26-477: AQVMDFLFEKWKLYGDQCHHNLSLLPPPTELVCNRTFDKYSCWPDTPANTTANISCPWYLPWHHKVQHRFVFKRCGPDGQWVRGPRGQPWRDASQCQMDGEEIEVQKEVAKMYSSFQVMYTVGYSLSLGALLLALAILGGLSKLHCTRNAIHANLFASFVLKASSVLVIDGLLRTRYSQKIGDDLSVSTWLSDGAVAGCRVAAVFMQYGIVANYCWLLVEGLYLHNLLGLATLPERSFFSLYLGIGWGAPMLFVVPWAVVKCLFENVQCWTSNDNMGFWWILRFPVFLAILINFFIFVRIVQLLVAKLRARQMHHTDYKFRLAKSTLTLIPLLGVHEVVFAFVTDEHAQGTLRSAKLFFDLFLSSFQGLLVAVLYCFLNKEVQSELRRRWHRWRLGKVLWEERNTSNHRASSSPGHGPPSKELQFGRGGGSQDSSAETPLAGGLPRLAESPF

Target: human glucagon receptor (GCGR), C-terminal Flag-tagged (human) (UniProt P47871)
Assay: affinity purification with mass spectrometry; anti-Flag M2 affinity gel on lysates of CHO cells transfected with GCGR-Flag, with or without glucagon (10 nM, 5 minutes); lysis buffer 10% glycerol, 50 mM HEPES pH 7.4, 150 mM NaCl, 2 mM EDTA, 0.25% DDM; elution with ammonium hydroxide pH 11.0, trypsin, LC-MS/MS; three repeats; control cells without GCGR-Flag

binding | Binder
binds | SPTLC2 (protein, UniProt O54694 1-560) MRPEPGGCCCRRPLRANGCVKNGEVRNGYVRSSTATAAAAGQIHHVTENGGLYKRPFNEVFEETPMLVAVLTYVGYGVLTLFGYLRDFLRHWRIEKCHHATEREEQKDFVSLYQDFENFYTRNLYMRIRDNWNRPICSVPGARVDIMERQSHDYNWSFKYTGNIIKGVINMGSYNYLGFARNTGSCQEAAAEVLKEYGAGVCSTRQEIGNLDKHEELEKLVARFLGVEAAMTYGMGFATNSMNIPALVGKGCLILSDELNHASLVLGARLSGATIRIFKHNNMQSLEKLLKDAIVYGQPRTRRPWKKILILVEGIYSMEGSIVRLPEVIALKKKYKAYLYLDEAHSIGALGPSGRGVVDYFGLDPEDVDVMMGTFTKSFGASGGYIGGKKALIDYLRTHSHSAVYATSMSPPVMEQIITSMKCIMGQDGTSLGKECVQQLAENTKYFRRRLKEMGFIIYGNEDSPVVPLMLYMPAKIGAFGREMLKRNVGVVVVGFPATPIIESRARFCLSAAHTKEILDTALKEIDEVGDLLQLKYSRRRLVPLLDRPFDETTYEETED
binds | ADSS (protein, UniProt V5QSN9 1-456) MSISESNPAAASLPNGDCGRPRAPPGGNRVTVVLGAQWGDEGKGKVVDLLAQDADIVCRCQGGNNAGHTVVVDSVEYDFHLLPSGIINPNVTAFIGNGVVIHLPGLFEEAEKNVQKGKGLDGWEKRLIISDRAHIVFDFHQAADGIQEQQRQEQAGKNLGTTKKGIGPVYSSKAARSGLRMCDLVSDFDGFSERFKVLANQYKSIYPTLEIDIEGELQKLKGYMERIKPMVRDGVYFLYEALHGPPKKILVEGANAALLDIDFGTYPFVTSSNCTVGGVCTGLGMPPQNVGEVYGVVKAYTTRVGIGAFPTEQDNEIGELLQTRGREFGVTTGRKRRCGWLDLVLLKYAHMINGFTALALTKLDILDMFTEIKVGVAYKLDGEIIPHFPANQEVLNKVEVQYKTLPGWNTDISNARTFKELPVNAQNYVRFIEDELQIPVKWIGVGKSRESMIQLF
